# Measured values as given in the NIST ThermoML archive (doi:10.1016/j.fluid.2012.05.007).
# Numbers after ± are expanded uncertainties.
# Details: 288.15 K; 101 kPa; Liquid; Pycnometric method
compound,measurement,value
O [water],mass density,999 ± 1 kg/m3
